Data as given in patent US20230233707A1.
Results are given in words; binding and its absence hold for the method and conditions named. Some binding calls cover weakened binding; strength is not graded here.

Key:
Conatumumab/AMG 655 [1] = assay: SEC and NS-EM of AbC formed with intact hIgG1 (FIG. 2d-e)
Conatumumab/AMG 655 [2] = assay: cage formation verified by SEC at minimum
Conatumumab/AMG 655 [3] = assay: SEC, design mixed with full human IgG1 (AMG-655 according to paragraph 219), overlaid on the single components [panel D]
Conatumumab/AMG 655 [4] = assay: SEC and NS-EM of AbC formed with conatumumab

Row | binding (Conatumumab/AMG 655 [1]) | binding (Conatumumab/AMG 655 [2]) | binding (Conatumumab/AMG 655 [3]) | binding (Conatumumab/AMG 655 [4]) | Binder
1 | binds | binds | binds | binds | d2.4 (designed binder) MSDEEERNELIKRIREAAQRAREAAERTGDPRVRELARELARIAQIAFYLVLHDPSSSEVNEALKAVVKAIELAVRALEAAEKTGDPRVRELAREVVKAAVDVAEAAQAGLNDKLREVAEKALRLAKEALKEGDSTAAELAAEIARLAAKLAGDEDVLKKVKLVLEAIKLVKIVVENAKRKGDDSKEAAEAAVAAFLIVLAAAKLAGIASEEVLELAARLIKEVVENAQREGYDIAVAAIAAAVAFAVVAVAAAAADITSSEVLELAIRLIKEVVENAQREGYVILLAALAAAAAFVVVAAAAKRAGITSSETLKRAIEEIRKRVEEAQREGNDISEAARQAAEEFRKKAEELKGSLEHHHHHH
2 | binds | binds | binds | – | d2.3 (designed binder) MSDEEERNELIKRIREAAQRAREAAERTGDPRVRELARELARIAQIAFYLVLHDPSSSEVNEALKAVVKAIELAVRALEEAEKTGDPEVRELAREVVRLAVEVATATAAGENDTLRKVAERALRLAKEAAKRGDAKAAKQAAKIAKLAAANAGDEDVLKKVELVRLAIELVEIVVENAKRKGDDDKEAAEAALAAFRIVLAAAQLAGIASLEVLELALRLIKEVVENAQREGYDIAVAAIAAAVAFAVVAVAAAAADITSSEVLELAIRLIKEVVENAQREGYVILLAALAAAAAFVVVAAAAKRAGITSSETLKRAIEEIRKRVEEAQREGNDISEAARQAAEEFRKKAEELKGSLEHHHHHH
3 | binds | binds | binds | – | d2.7 (designed binder) MSDEEERNELIKRIREAAQRAREAAERTGDPRVRELARELAKLAQIAFYLVLHDPSAKEVNLALELIVKAIELAVRALEEAEKTGDPHARELAREIVRLAVELARAVAEAAEEAKKQGNSELAEQVARAAQVALEVIKAAITAAKQGDRKAFRAALELVLEVIKAIEEAVKQGNPKKVAEVALKAELIRIVVQNAANKGDDADEAVEAARAAFEIVLAAAQLAGIDSEEVLELAARLIKEVVENAQREGYDIAVAAIAAAVAFAVVAVAAAAADITSSEVLELAIRLIKEVVENAVREGYVILLAALAAAAAFVVVAAAAKRAGITSSETLKRAIEEIRKRVEEAQREGNDISEAARQAAEEFRKKAEELKGSLEHHHHHH
4 | – | binds | – | – | i52.6 (designed binder) MSDEEERNELIKRIREAAQRAREAAERTGDPRVRELARELARLAQRAFYLVLHDPSSSDVNEALKLIVEAIEAAVRALEAAERTGDPKVREEARELVRRAVEAAEEVQRNPSSSEVNEKLKAIVVEIEVKVASLEAKEVTDPDKALKIAKKVIELALEAVKENPSTEALRAVLEAVRLASEVAKRVTDPDKALKIAKLVIELALEAVKEDPSTDALRAVLEAVRLASEVAKRVTDPDKALKIAKLVLELAAEAVKEDPSTDALRAAKEAERLATEVAKRVTDPKKAREIEMLVLKLQMEAILAETEEVKKEIEESKKRPQSESAKNLILIMQLLINQIRLLALQIRMLALQLQEGSLEHHHHHH
5 | binds | binds | binds | binds | i52.3 (designed binder) MSDEEERNELIKRIREAAQRAREAAERTGDPRVRELARELARLAQRAFYLVLHDPSSSDVNEALKLIVEAIEAAVRALEAAERAGDPELREDAREAVRLAVEAAEEVQRNPSSSTANLLLKAIVALAEALAAAANGDKEKFKKAAESALEIAKRVVEVASKEGDPEAVLEAAKVALRVAELAAKNGDKEVFKKAAESALEVAKRLVEVASKEGDPELVLEAAKVALRVAELAAKNGDKEVFQKAAASAVEVALRLTEVASKEGDSELETEAAKVITRVRELASKQGDAAVAILAETAEVKLEIEESKKRPQSESAKNLILIMQLLINQIRLLVLQIRMLDEQRQEGSLEHHHHHH
